Drawing on article PMC9508819, “Rbp95 binds to 25S rRNA helix H95 and cooperates with the Npa1 complex during early pre-60S particle maturation”, this text covers binding for eleven molecules.

Sequences of proteins named here, by UniProt entry; tags and fusion partners are left off.
UniProt P32495: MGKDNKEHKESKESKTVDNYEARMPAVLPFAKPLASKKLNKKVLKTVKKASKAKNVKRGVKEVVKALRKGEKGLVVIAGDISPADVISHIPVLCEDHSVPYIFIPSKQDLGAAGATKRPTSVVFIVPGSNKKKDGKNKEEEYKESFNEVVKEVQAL
UniProt P14126: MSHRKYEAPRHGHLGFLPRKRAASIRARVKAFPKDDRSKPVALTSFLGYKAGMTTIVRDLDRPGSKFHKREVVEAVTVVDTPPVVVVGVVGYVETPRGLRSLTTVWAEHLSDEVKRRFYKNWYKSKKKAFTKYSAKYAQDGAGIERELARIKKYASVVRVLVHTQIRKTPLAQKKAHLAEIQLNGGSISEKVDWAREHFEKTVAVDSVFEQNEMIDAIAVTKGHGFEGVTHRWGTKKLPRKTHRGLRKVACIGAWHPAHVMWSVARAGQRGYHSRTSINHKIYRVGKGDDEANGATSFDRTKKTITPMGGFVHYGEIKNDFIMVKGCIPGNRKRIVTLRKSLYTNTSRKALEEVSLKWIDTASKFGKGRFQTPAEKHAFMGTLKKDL
UniProt Q6Q547: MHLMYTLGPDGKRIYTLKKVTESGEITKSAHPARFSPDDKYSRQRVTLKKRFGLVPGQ
UniProt P40007: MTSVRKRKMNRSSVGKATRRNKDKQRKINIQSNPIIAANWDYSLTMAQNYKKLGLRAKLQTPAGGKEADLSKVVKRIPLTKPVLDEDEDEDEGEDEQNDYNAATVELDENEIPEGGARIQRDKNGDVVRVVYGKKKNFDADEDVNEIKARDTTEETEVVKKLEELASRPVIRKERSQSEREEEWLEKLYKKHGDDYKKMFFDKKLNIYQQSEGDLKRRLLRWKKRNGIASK

Test [1] deals with T1, Noc2-TAP (S. cerevisiae) (UniProt P39744).
T1 sequence: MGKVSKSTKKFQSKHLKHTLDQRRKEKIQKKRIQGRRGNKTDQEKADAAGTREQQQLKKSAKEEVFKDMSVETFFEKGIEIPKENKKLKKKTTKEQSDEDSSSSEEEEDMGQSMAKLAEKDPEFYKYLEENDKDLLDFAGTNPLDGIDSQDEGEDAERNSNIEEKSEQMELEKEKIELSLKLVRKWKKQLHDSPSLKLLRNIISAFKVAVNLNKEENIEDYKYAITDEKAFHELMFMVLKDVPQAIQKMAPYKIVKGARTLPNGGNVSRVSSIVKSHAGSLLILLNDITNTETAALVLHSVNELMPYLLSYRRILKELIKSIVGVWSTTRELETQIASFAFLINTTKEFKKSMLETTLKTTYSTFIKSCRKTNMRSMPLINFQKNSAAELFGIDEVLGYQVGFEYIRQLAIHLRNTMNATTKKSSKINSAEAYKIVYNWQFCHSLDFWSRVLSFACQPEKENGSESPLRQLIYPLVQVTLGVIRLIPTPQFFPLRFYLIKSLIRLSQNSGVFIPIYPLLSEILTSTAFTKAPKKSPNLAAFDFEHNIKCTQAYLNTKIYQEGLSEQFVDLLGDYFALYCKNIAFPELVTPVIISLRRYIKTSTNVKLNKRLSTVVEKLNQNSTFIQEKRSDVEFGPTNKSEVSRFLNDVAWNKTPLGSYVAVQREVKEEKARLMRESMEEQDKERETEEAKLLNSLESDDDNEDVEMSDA
Description: affinity purification with mass spectrometry; tandem-affinity purification from yeast lysate, elution from Calmodulin Sepharose with 0.8% ammonium hydroxide; label-free semi-quantitative LC-MS/MS (LFQ, MaxQuant); for Figure 8A, B from wild-type and Δrbp95 strains.

For test [2], the target named is T2, Rbp95-TurboID (S. cerevisiae) (UniProt P25617).
T2 sequence: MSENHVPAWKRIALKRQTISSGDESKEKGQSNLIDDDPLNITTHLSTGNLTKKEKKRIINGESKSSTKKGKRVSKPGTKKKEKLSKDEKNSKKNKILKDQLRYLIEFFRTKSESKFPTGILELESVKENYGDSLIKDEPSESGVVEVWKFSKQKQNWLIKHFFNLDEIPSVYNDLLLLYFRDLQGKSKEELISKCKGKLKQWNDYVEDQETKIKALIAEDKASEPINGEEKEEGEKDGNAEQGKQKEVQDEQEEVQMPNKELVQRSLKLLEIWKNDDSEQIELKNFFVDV
Description: proximity labelling; TurboID: C-terminally TurboID-tagged bait from the CUP1 promoter in yeast, 500 uM copper sulfate and biotin for 1 h; biotinylated proteins purified on streptavidin agarose, LC-MS/MS; enrichment against NLS-GFP-TurboID control.

For test [3], the target named is T3, Rbp95-TAP (S. cerevisiae) (UniProt P25617).
T3 sequence: T2 sequence
Description: affinity purification with mass spectrometry; tandem-affinity purification from yeast lysate, elution from Calmodulin Sepharose with 0.8% ammonium hydroxide; label-free semi-quantitative LC-MS/MS (LFQ, MaxQuant); for Figure 8A, B from wild-type and Δrbp95 strains.

These are yes or no findings as the source states them, for the method shown. Binding seen in cells or lysates may run through a third protein. These calls come from enrichment with a bait or labelling near it, and not all partners need be listed.

For Nhp2 (from UniProt P32495 1-156), in test [1], the binding entry is “binds”. The same measure, in the same setting: the result for Rpl3 (from UniProt P14126 1-387) reads “binds”; that for Nop10 (from UniProt Q6Q547 1-58), “binds”. With Nop16 (from UniProt P40007 1-231), in test [1], the binding entry is listed as “binds”.

B1: Rok1 (enzyme, UniProt P45818 1-564)
chain: MDIFRVLTRGASVKKESGPKAKAADYSVINGNDENHKEDNNESQIVKELDFFRNKRIISKVEDDREKTTENDSPNKEEKSGNDDGLIKPVITNTVEASALRKSYKGNVSGIDIPLPIGSFEDLISRFSFDKRLLNNLIENGFTEPTPIQCECIPVALNNRDVLACGPTGSGKTLAFLIPLVQQIIDDKQTAGLKGLIISPTKELANQIFIECFKLSYKIFLEKKRPLQVALLSKSLGAKLKNKVVSDKKYDIIISTPLRLIDVVKNEALDLSKVKHLIFDEADKLFDKTFVEQSDDILSACREPSLRKAMFSATIPSNVEEIAQSIMMDPVRVIIGHKEAANTNIEQKLIFCGNEEGKLIAIRQLVQEGEFKPPIIIFLESITRAKALYHELMYDRINVDVIHAERTALQRDRIIERFKTGELWCLICTDVLARGIDFKGVNLVINYDVPGSSQAYVHRIGRTGRGGRSGKAITFYTKQDSVAIKPIINVMKQSGCEVSEWMDKMAKMTRKEKESIKNGKAHKERKQITTVPKMDKAKRRRQQEMIAASKRRKNEELSKKHFSK
As for B1, the binding entry in test [2] was “binds”.

B2: Rrs1 (protein, UniProt Q08746 1-203)
chain: MSAEDYKNLPVTVEKPIPVVYDLGNLAAFDSNVLDKNDLDSSNARREEKIKSLTRDNVQLLINQLLSLPMKTTTESVGGTGGQSSVMTLLQLPDPTTDLPREKPLPKAKAMTKWEKFAAKKGIKPKERAGKMIYDEASGEWVPKWGYKGANKKLDDQWLVEVDDKVKGTDNELIDPRTLNRAERKRLVKKNEKQQRRNMKNAL
As for B2, in test [2], the binding entry was “binds”.

B3: Rrp7 (protein, UniProt P25368 1-297)
chain: MGIEDISAMKNGFIVVPFKLPDHKALPKSQEASLHFMFAKRHQSSNSNESDCLFLVNLPLLSNIEHMKKFVGQLCGKYDTVSHVEELLYNDEFGLHEVDLSALTSDLMSSTDVNEKRYTPRNTALLKFVDAASINNCWNALKKYSNLHAKHPNELFEWTYTTPSFTTFVNFYKPLDIDYLKEDIHTHMAIFEQREAQAQEDVQSSIVDEDGFTLVVGKNTKSLNSIRKKILNKNPLSKHENKAKPISNIDKKAKKDFYRFQVRERKKQEINQLLSKFKEDQERIKVMKAKRKFNPYT
For B3, in test [1], the binding result was “binds”.

B4: Dbp6 (enzyme, UniProt P53734 1-629)
chain: MFASRFDPSQLTAPAASAPEGIVGTTPPAIVPLKRQATESDNEEYGSHQDSDESSNSSSEEDEDRMQVDYGASEEDSSEVEEEESKPSTHSTVLSRFKQTVSLQERLGASDIAESKEDEGIEDEAASTHQLKQIPQPEFVKNPMNLNTNSLQFKSTGWLNTEKIYYDNSLIKPFSDYANELEAKLLQNICKNFSTNTFPIQSIILDSILPVLNFTLNVSKRNFTRRIGDILVNAATGSGKTLAYSIPIVQTLFKRQINRLRCIIIVPTKLLINQVYTTLTKLTQGTSLIVSIAKLENSLKDEHKKLSNLEPDILITTPGRLVDHLNMKSINLKNLKFLIIDEADRLLNQSFQGWCPKLMSHLKTDKLDTLPGNVIKMIFSATLTTNTEKLNGLNLYKPKLFLKQTDKLYQLPNKLNEFNINIPTAKSVYKPLILLYSICQFMAHSPIAAKILIFVKSNESSIRLSKLLQLICESRSQSSVLKNLQNLAVSINSVNSNNSKAENKKIVANFSHHSESAGITILITTDIMSRGIDINDITQVINYDPPMSSQQYVHRVGRTARANELGSAYNLLVGRGERTFFDDLNKDLDRDGKSVQPLELDFTLLESDSELYTSSLESLKNYHNNTAQA
For the molecule B4, in test [3], the binding result is “binds”.

B5: Mak5 (enzyme, UniProt P38112 1-773)
chain: MGKKRAPQKGKTVTKPQEIIVDESKLNWKPVDIPDTLDDFGGFYGLEEIDGVDVKVVDGKVTFVTKKDSKVLKDSNKEKVGDDQESVENESGSDSESELLEFKNLDDIKEGELSAASYSSSDEDEQGNIESSKLTDPSEDVDEDVDEDVLKENVFNKDINIDDISPVNLPEWTNLAPLSMTILQSLQNLNFLRPTEIQKKSIPVIMQGVDVMGKASTGSGKTLAYGIPIVEKLISNFSQKNKKPISLIFTPTRELAHQVTDHLKKICEPVLAKSQYSILSLTGGLSIQKQQRLLKYDNSGQIVIATPGRFLELLEKDNTLIKRFSKVNTLILDEADRLLQDGHFDEFEKIIKHLLVERRKNRENSEGSSKIWQTLIFSATFSIDLFDKLSSSRQVKDRRFKNNEDELNAVIQHLMSKIHFNSKPVIIDTNPESKVSSQIKESLIECPPLERDLYCYYFLTMFPGTTLIFCNAIDSVKKLTVYLNNLGIPAFQIHSSMTQKNRLKSLERFKQQSAKQKTINHSNPDSVQLSTVLIASDVAARGLDIPGVQHVIHYHLPRSTDIYIHRSGRTARAGSEGVSAMICSPQESMGPLRKLRKTLATKNSVSTDLNSRSTNRKPIKWQNTVPLLPIETDILSQLRERSRLAGELADHEIASNSLRKDDNWLKKAADELGIDVDSDEDDISKSNSDTFLLKNKNKKMQKTINKDKVKAMRATLNELLSVPIRKDRRQKYLTGGLVNLADNLVKKRGHNSIIGHEKTNALETLKKKKKRNN
B5: in test [3], the binding result is “binds”.

B6: Rrp15 (protein, UniProt Q06511 1-250)
chain: MGSKHRVDTKDKKRTRKNAEFGREKRNSGNQELSNEPEKDTIMEGDEAEEDEQNSSSDESSKIIDNEQSDAEEDDDEEEEDDDFPRKKKSKNSKHDDGSTGFSAAVNAILSSHLKAYDRKDPIMARNKKVLKQSESEKLEYKAKKALLAEKKKLLGKARKTDIIPIASGEDRSENIRKVLEKETALRKIAQKGAVKLFNAILATQVKTEKEVSENLSEIKNKEEKKELITEVSKEKFLDLVKAAAGSDNE
Turning to B6, the binding entry in test [1] is given as “binds”.

B7: Ssf2 (protein, UniProt Q12153 1-453)
chain: MAKRRQKKRTHAQITPEQERDIPKSMVIRVGQTSLANHSLNQLVKDFRQIMQPHTAVKLKERKSNKLKDFVVMCGPLGVTHLFMFTQSEKTGNVSLKIARTPQGPTVTFQVLDYSLGRDIKKFLKRPKSLNNDDVLNPPLLVLNGFSTSKRSDEDDQDVNVEKVIVSMFQNIFPPLNPARTSLNSIKRIFMINKDRETGEISMRHYFIDIREVEISRNLKRLYKAKNNLSKTVPNLHRKEDISSLILDHDLGAYTSESEIEDDAIVRVVDNQDVKAKHSQTSLSQKTPVKMTDNEEREKGIEEEDVEMEEPKPSENSQPTPRKKAIKLTELGPRLTLKLVKIEDGICSGKVLHHEFVQKSSEEIKALEKRHAAKMRLKEQRRKEQEENIAKKKAVKDAKKQRKLERRKARAEEQGEGQGKDGAMSDDGSSSSEDEHYSDVPEDLDSDLFSEVE
On to B7, for which the binding entry in test [1] is “binds”.
